The results in this text go back to PubChem BioAssay AID2685 (National Center for Advancing Translational Sciences (NCATS), 2010).

This is one part of the list. The main result of the screen is listed elsewhere. These columns were measured beside it and carry no call. The list favours compounds with an active or inconclusive main result. The note in brackets gives the kind of curve behind each potency; many fits are weak.

The test is described as follows: qHTS Assay for Lipid Storage Modulators in Drosophila S3 Cells.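 On cell number change: cells counted by Cell Tracker Red CMTPX staining in the red channel.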 The note with it: BODIPY lipid droplet fluorescence, 18-24 h; for cell number change: measured here: cell count max response, cells fed with added oleic acid. In outline:
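Drosophila S3 cells loaded with oleic acid (400 uM, as added) and compounds at several concentrations; lipid droplets imaged by 488-nm laser-scanning cytometry, 500–530 nm intensity and object ratio to cell channel. Percent activity normalized to 20 uM Triacsin C.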

[1] abbreviates: measured here: lipid fluorescence (Fed channel) AC50, cells fed with added oleic acid.
[2] abbreviates: measured here: cell number channel AC50, cells fed with added oleic acid.

With `CC(=O)N1CCN(c2nc3ccc(Br)cc3s2)CC1`, the cell number change came out at 13.8%. Moreover, the concentration at half-maximal activity (AC50) under setting [1] is 1.03 µM [rising, full curve]. Take `C=CCOC(=O)C1=C(C)NC(SCC(=O)N(CC)CC)=C(C#N)C1c1ccco1` (configuration not stated): the cell number change was 299%. Also, under setting [2], the AC50 was 16.4 µM [rising, partial curve]. Moreover, under setting [1], the AC50 is 5.17 µM [rising, partial curve]. As for `Cc1ccc(C)c(N2CCN(S(=O)(=O)c3ccc(-c4ccc(=O)[nH]n4)o3)CC2)c1`, the cell number change was -14.5%.

On to `O=C(CCl)N(c1ccccc1)c1ccccc1`, for which the cell number change was -27.3%. Also, the half-maximal activity concentration (AC50) under setting [1] is 18.4 µM [falling, single point]. Turning to `CC(C)OC(=O)c1cc(Cl)c(=O)n(Cc2ccc(Cl)cc2Cl)c1`, the cell number change was -8.38%. For the same molecule, the AC50 under setting [1] was 2.91 µM [rising, partial curve].

Regarding `Cn1c(/C(C#N)=C(\O)c2ccc([N+](=O)[O-])cc2)nc2ccccc21`, the cell number change turned out to be 8.8%. In addition, under setting [1], the AC50 is 20.6 µM [falling, single point]. Regarding `COC(=O)c1cc(C(=O)N2CCN(c3ccccc3OC)CC2)cc([N+](=O)[O-])c1`, the cell number change was determined as 8.14%. The half-maximal activity concentration (AC50) under setting [1] was 0.092 µM [falling, full curve, poor fit].

Turning to `CN(C)S(=O)(=O)N1CCN(C(=O)c2ccccc2)CC1`, the AC50 under setting [1] is 0.461 µM [falling, full curve]. For `Nc1ccc2c3c(cccc13)C(=O)N(c1ccccc1)C2=O`, the cell number change was -64.9%. In addition, the AC50 under setting [2] is 20.6 µM [falling, single point]. Also, under setting [1], the AC50 is 11.6 µM [falling, partial curve]. `Cc1ccc(SCCNC(=O)C(C)C)cc1`: the cell number change is 6.95%. In addition, the half-maximal activity concentration (AC50) under setting [1] was 3.66 µM [falling, full curve, poor fit]. `CCOC(=O)C1=C(CNCc2ccc(C)cc2)NC(=O)NC1c1cc(C)ccc1C` (configuration not stated): the AC50 under setting [1] was 4.11 µM [rising, single point]. Consider `CC1(C)CC(=O)c2sc(NC(=O)c3ccccc3)nc2C1`, for which the cell number change was -4.46%. `O=C(Cn1nc(-c2ccccc2)c2ccccc2c1=O)Nc1ccc2c(c1)nc1n2CCOC1`: the cell number change was -25.7%. In addition, the AC50 under setting [1] is 0.116 µM [rising, full curve, poor fit]. `Oc1ccccc1/C=N/n1cnn(Cc2ccccc2Cl)c1=S`: the cell number change was 4.16%. Moreover, the AC50 under setting [2] is 0.0231 µM [rising, full curve, poor fit]. Further, the AC50 under setting [1] is 0.103 µM [rising, partial curve, poor fit]. Consider `CN(C)S(=O)(=O)c1ccc(C(=O)N2CCOCC2)cc1`, for which the cell number change was -31.2%. Also, the AC50 under setting [2] is 0.13 µM [falling, full curve, poor fit]. Under setting [1], the AC50 was 0.116 µM [falling, full curve, poor fit]. As for `CN1/C(=C\C(=O)COC(=O)CN2C(=O)C3CC=CCC3C2=O)C(C)(C)c2ccccc21` (configuration not stated), the cell number change was -29.5%. Further, the AC50 under setting [1] is 29.1 µM [falling, single point]. Take `COC(=O)C1=C(C)NC(C)=C(C(=O)OCCN(C)Cc2ccccc2)C1c1cccc([N+](=O)[O-])c1` (configuration not stated): the cell number change was 1.01%. The AC50 under setting [1] is 5.8 µM [rising, partial curve]. `Cc1ccc(Nc2nc(Cl)c(C=O)s2)cc1`: the cell number change is -1.85%. In addition, under setting [1], the AC50 is 2.59 µM [rising, partial curve].

Regarding `COc1ccc(N2CCN(C(=O)c3ccc(Cl)c(S(=O)(=O)N4CCCC4)c3)CC2)cc1`, under setting [1], the AC50 is 4.61 µM [rising, partial curve]. Regarding `N#CCC(=O)N/N=C/c1cn(Cc2ccc3ccccc3c2)c2ccccc12`, the cell number change was -43.3%. Besides, the AC50 under setting [2] is 18.4 µM [falling, single point]. Besides, the AC50 under setting [1] is 20.6 µM [falling, single point]. Turning to `CCOC(=O)C1=C(C)Nc2ccccc2N=C1NC(=O)c1cc(C)on1`, the cell number change was 10.6%. Also, under setting [1], the AC50 was 9.2 µM [rising, partial curve, poor fit]. Take `COc1ccccc1C(OC(=O)c1ccco1)C(=O)NCc1ccc(F)cc1` (configuration not stated): the cell number change stood at 37%. As to `COc1ccc(C(=O)NC2CCN(CC(=O)Nc3cccc(OC)c3)CC2)cc1`, the cell number change amounted to 20.8%. Moreover, the concentration at half-maximal activity (AC50) under setting [1] was 29.1 µM [rising, single point]. As for `CC1CCCN(c2cc3c(cc2[N+](=O)[O-])C(=O)N(c2ccccc2)C3=O)C1` (configuration not stated), the cell number change is -41.9%. For the same molecule, the AC50 under setting [2] was 36.6 µM [falling, partial curve, poor fit]. For `O=C(NCc1nc2ccccc2[nH]1)c1cccc(S(=O)(=O)N2CCOCC2)c1`, the AC50 under setting [1] is 0.366 µM [rising, single point]. As to `CN(CC(=O)Nc1cc(S(=O)(=O)N2CCOCC2)ccc1Cl)C1CCS(=O)(=O)C1` (configuration not stated), the cell number change is -7%. Also, under setting [2], the AC50 is 0.00461 µM [rising, full curve, poor fit].

As to `Cc1cccnc1NC(=S)NC(=O)/C=C/c1ccco1`, the cell number change was 40.8%. Moreover, the AC50 under setting [2] was 5.8 µM [rising, partial curve].

Take `CCNc1nc(NC(C)(C)C)nc(SCC(N)=O)n1`: the cell number change was -26%. The concentration at half-maximal activity (AC50) under setting [2] was 0.794 µM [falling, full curve, poor fit]. Moreover, the AC50 under setting [1] is 5.01 µM [falling, full curve]. `CCOc1ccc(NC(=O)c2cccc3c2C(=O)N(CC2CCCO2)C3)cc1` (configuration not stated): the cell number change is -7.2%. Further, the AC50 under setting [1] was 0.651 µM [rising, full curve]. For the molecule `COc1ccc(S(=O)(=O)N2CCC(n3cnc4ccccc43)CC2)cc1`, the cell number change was -9.4%.

In the case of `Cc1ccc(C(=O)O/N=C(\N)Cc2cccs2)cc1[N+](=O)[O-]`, the cell number change turned out to be 41.1%. Also, under setting [2], the AC50 was 5.8 µM [rising, partial curve]. `CCOc1ccc(S(=O)(=O)NCc2cccnc2)cc1`: the cell number change came out at 53.2%. Under setting [2], the half-maximal activity concentration (AC50) is 29.1 µM [rising, partial curve, poor fit].

`C/C(=N\NC(=O)c1cc([N+](=O)[O-])cc([N+](=O)[O-])c1)c1ccco1`: the cell number change is -1.27%. Besides, the AC50 under setting [1] is 29.1 µM [falling, single point]. Take `CCn1c(CCc2ccccc2)nnc1SCC(N)=O`: under setting [1], the concentration at half-maximal activity (AC50) was 6.51 µM [rising, single point]. As for `CCOC(=O)/C(C#N)=C/Nc1ccsc1C(C)=O`, the cell number change was determined as 11.7%. The half-maximal activity concentration (AC50) under setting [1] is 0.00461 µM [rising, full curve, poor fit]. For the molecule `CCCc1[nH]nc2c1C(c1ccc(O)cc1OCC)C(C#N)=C(N)O2` (configuration not stated), the cell number change is -31.8%. Also, the AC50 under setting [2] is 9.2 µM [falling, partial curve, poor fit]. In addition, the concentration at half-maximal activity (AC50) under setting [1] is 18.4 µM [falling, partial curve]. For the molecule `O=C(COC(=O)c1cc[n+]([O-])cc1)NCCc1ccc(Cl)cc1Cl`, the cell number change is -2.2%. For the same molecule, the concentration at half-maximal activity (AC50) under setting [1] was 0.103 µM [falling, full curve, poor fit].

Take `CC(=O)N/C(=C\c1ccccc1)C(=O)OC(C)C(=O)c1ccccc1` (configuration not stated): the cell number change was 38.4%. For the same molecule, the AC50 under setting [2] was 18.4 µM [rising, single point]. Consider `O=C(O)COc1ccccc1/C=C1\SC(=S)N(/N=C/c2ccccc2O)C1=O`, for which the cell number change is -8.12%.

Turning to `N/C(=N\N=C\c1cccc(O)c1)c1nonc1N`, the cell number change is -38.6%. For the same molecule, the AC50 under setting [2] is 10.3 µM [falling, partial curve]. Regarding `COc1cc(N2CCOCC2)ccc1C=C(C#N)C#N`, the cell number change was -2.17%. Further, the AC50 under setting [1] was 16.4 µM [falling, single point]. Turning to `CCC(=O)N1CCc2cc(S(=O)(=O)NC(Cc3ccccc3)C(=O)Nc3nccs3)ccc21` (configuration not stated), the cell number change was found to be 32.6%. Moreover, the AC50 under setting [2] is 4.11 µM [rising, partial curve, poor fit]. The AC50 under setting [1] was 0.184 µM [rising, full curve, poor fit]. For the molecule `Cc1cc(C)c2nc(N3CCN(C(=O)c4cccs4)CC3)sc2c1`, the cell number change is 46.6%. For the same molecule, the AC50 under setting [2] is 14.6 µM [rising, single point].

In the case of `Cc1cccc2c(=O)cc(C)n(CC(N)=O)c12`, the AC50 under setting [1] was 0.13 µM [falling, full curve, poor fit]. On the same count and under the same terms, to `CC1CC(C)CN(S(=O)(=O)N2CCCC(C(=O)NC3CCCCC3)C2)C1` (configuration not stated) belongs 2.91 µM [rising, single point]. Consider `Fc1ccc2c(c1)C(c1ccc(N3CCOCC3)cc1)=NNC(c1cccs1)=N2`, for which the cell number change worked out at 35.6%. Also, under setting [2], the AC50 was 3.66 µM [rising, partial curve, poor fit]. The AC50 under setting [1] is 3.26 µM [rising, full curve]. Turning to `Cc1cccc(Nc2ncnc(N)c2[N+](=O)[O-])n1`, the cell number change came out at 47.1%. In addition, the concentration at half-maximal activity (AC50) under setting [2] is 23.1 µM [rising, single point]. Further, under setting [1], the half-maximal activity concentration (AC50) is 18.4 µM [rising, partial curve]. Take `O=C(Nc1cccc2nsnc12)c1ccc(-c2cccc(Cl)c2)o1`: the cell number change worked out at 16.2%.

As to `Cc1cc(SCC(=O)c2cc(C)n(C)c2C)nc2ccccc12`, the cell number change was -2.83%. As for `COc1ccc(C(CC(=O)O)NC(=O)Cc2ccccc2)cc1` (configuration not stated), the cell number change was -12.9%. Under setting [1], the AC50 was 29.1 µM [falling, single point].

As for `NC(=O)NC(CC(=O)NNC(=O)c1ccccn1)c1ccccc1Cl` (configuration not stated), the cell number change was -12%. Take `CN(C)CCCNS(=O)(=O)c1ccc(NC2CCCCCC2)c([N+](=O)[O-])c1`: the cell number change was found to be 8.97%. For the same molecule, the half-maximal activity concentration (AC50) under setting [1] was 6.51 µM [rising, single point]. Take `COc1ccc(NC(=O)CN(C)S(=O)(=O)c2ccc3[nH]c(=O)oc3c2)cc1`: the cell number change is 2.97%. The AC50 under setting [1] was 29.1 µM [rising, single point]. Regarding `Cc1ccc(NC(=S)NC(=O)C2CCCC2)cc1C`, the cell number change is 2.9%. The concentration at half-maximal activity (AC50) under setting [1] is 29.1 µM [rising, partial curve]. Turning to `O=S(=O)(NCCc1ccc(Cl)cc1)c1cccc2cccnc12`, the cell number change was found to be 19.9%. `O=C(CN1C(=O)COc2ccccc21)N(CCCN1CCOCC1)CC1CC=CCC1` (configuration not stated): the cell number change is -16.7%. Besides, the AC50 under setting [1] is 0.146 µM [rising, full curve, poor fit]. In the case of `COC(=O)c1ccc(/C=N/NC(=O)C(=O)N2CCCCCC2)cc1`, the cell number change came to 23.8%. Still for that read-out and setting: to `O=C(CS(=O)(=O)Cc1ccccc1)N1CCN(c2cccc(C(F)(F)F)c2)CC1` belongs -15.8%; to `CCC(C)[C@H]1COCCS(=O)(=O)N1Cc1ccccc1` (some centres not stated), 4.79%. For `O=c1c2c3nc4ccccc4nc3n(/N=C/c3ccco3)c2ncn1CCC1=CCCCC1`, the cell number change is -20.1%. Besides, the AC50 under setting [2] was 0.291 µM [falling, partial curve].

With `C=CCN(c1ccccc1)S(=O)(=O)c1ccc2c(c1)NC(=O)C(C)S2` (configuration not stated), the AC50 under setting [1] is 0.00461 µM [falling, full curve, poor fit].
